# Experimental data: PubChem BioAssay AID1259423 (Fisher Drug Discovery Resource Center, 2018)
# Values joined by “and” are separate entries in the source; they are usually repeats but may differ in a detail not shown here. Equal values may be shown once. This is one part of the list.
# Tested on: Aedes aegypti neuropeptide Y-like receptor 7 (NPYLR7)
# Experiment: agonists of mosquito NPYLR7 receptor, primary screen, cell-based, Aedes aegypti, calcium fluorescence, mosquito biting behavior (AID 1259423);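 also: 0% = vehicle and 100% = reference agonist at the receptor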
# Details: HEK293T NPYLR7/Galpha15, GCaMP6s calcium fluorescence; measured here: Max-Min RFU normalised activation; at 10 µM; stronger effect = higher value
row,Compound,activation
1,COc1cccc(N(C(=O)c2cccc(Cl)c2)C2CCNCC2)c1,11.6%
2,O=C(NCC1(N2CCCCC2)CCCCC1)c1cn2ccccc2n1,3.19%
3,CC(C)(C)OC(=O)N1CCC(Nc2ccccc2)(C(=O)N2CCC2)CC1,-0.459%
4,CN(C)C1(CNC(=O)c2ccccn2)CCCCC1,4.05%
5,O=C(NCC1(N2CCOCC2)CCCCC1)c1ccc(Br)o1,5.33%
6,Cc1ccc(C(C)CCN(CCCl)CCCl)cc1 (stereo not given),-8.24%
7,O=C(NCC1(N2CCCCC2)CCCCC1)c1cccs1,-2.62%
8,Cc1nc([N+](=O)[O-])cn1CCC(=O)N[C@@H]1CCCC[C@H]1N1CCOCC1,7.32%
9,c1ccc(NC2CCN(CCc3ccncc3)CC2)cc1,4.01%
10,O=C(N[C@@H]1CCCC[C@H]1N1CCOCC1)c1cccc(Br)c1,-17.9%
11,Cc1cc(=O)[nH]c(C(C)N2CCC(Nc3ccccc3)CC2)n1 (stereo not given),5.78% and 7.32%
12,O=C(NCC1(N2CCOCC2)CCCCC1)c1ccc2c3c(cccc13)CC2,-1.67%
13,COCC(=O)N(c1cccc(C)c1)C1CCNCC1,10.2%
14,O=C(NCC1(N2CCCCC2)CCCCC1)c1cc2c(s1)CCC2,20.3%
15,COc1cc(NC2CCNCC2)cc(OC)c1,-6.83%
16,O=C(NCC1(N2CCCCC2)CCCCC1)c1ccc2c(c1)OCO2,0.707%
17,O=c1[nH]c2ccccc2n1C1CCN(Cc2ccccn2)CC1,-9.47%
18,Cc1cccc(N(C(=O)c2ccco2)C2CCN(C(=O)OC(C)(C)C)CC2)c1,-0.52%
19,N#Cc1ccc(C(=O)CBr)cc1,11.5%
20,COc1cccc(NC2CCN(Cc3ccncc3)CC2)c1,0.519%
21,O=C(NCC1(N2CCOCC2)CCCCC1)c1ccc(OCC(F)(F)F)nc1,-13.8%
22,O=c1[nH]c2ccccc2n1C1CCN(Cc2cccc(F)c2F)CC1,-3.89%
23,COc1ccc(N(C(=O)CC(C)C)C2CCNCC2)cc1,9.74%
24,CCc1ccc(N(C(=O)c2cccc(C)c2)C2CCNCC2)cc1,13.3%
25,Cc1ccc(N(C(=O)c2ccco2)C2CCNCC2)cc1F,15.2%
